Experimental data: US20260226131A1 (SHANGHAI INSTITUTE OF MATERIA MEDICA CHINESE ACADEMY OF …, published 2026)

Sequences of proteins named here, by UniProt entry; tags and fusion partners are left off. A change or cut given only in a name is not applied to a line headed by its entry.
UniProt P06213: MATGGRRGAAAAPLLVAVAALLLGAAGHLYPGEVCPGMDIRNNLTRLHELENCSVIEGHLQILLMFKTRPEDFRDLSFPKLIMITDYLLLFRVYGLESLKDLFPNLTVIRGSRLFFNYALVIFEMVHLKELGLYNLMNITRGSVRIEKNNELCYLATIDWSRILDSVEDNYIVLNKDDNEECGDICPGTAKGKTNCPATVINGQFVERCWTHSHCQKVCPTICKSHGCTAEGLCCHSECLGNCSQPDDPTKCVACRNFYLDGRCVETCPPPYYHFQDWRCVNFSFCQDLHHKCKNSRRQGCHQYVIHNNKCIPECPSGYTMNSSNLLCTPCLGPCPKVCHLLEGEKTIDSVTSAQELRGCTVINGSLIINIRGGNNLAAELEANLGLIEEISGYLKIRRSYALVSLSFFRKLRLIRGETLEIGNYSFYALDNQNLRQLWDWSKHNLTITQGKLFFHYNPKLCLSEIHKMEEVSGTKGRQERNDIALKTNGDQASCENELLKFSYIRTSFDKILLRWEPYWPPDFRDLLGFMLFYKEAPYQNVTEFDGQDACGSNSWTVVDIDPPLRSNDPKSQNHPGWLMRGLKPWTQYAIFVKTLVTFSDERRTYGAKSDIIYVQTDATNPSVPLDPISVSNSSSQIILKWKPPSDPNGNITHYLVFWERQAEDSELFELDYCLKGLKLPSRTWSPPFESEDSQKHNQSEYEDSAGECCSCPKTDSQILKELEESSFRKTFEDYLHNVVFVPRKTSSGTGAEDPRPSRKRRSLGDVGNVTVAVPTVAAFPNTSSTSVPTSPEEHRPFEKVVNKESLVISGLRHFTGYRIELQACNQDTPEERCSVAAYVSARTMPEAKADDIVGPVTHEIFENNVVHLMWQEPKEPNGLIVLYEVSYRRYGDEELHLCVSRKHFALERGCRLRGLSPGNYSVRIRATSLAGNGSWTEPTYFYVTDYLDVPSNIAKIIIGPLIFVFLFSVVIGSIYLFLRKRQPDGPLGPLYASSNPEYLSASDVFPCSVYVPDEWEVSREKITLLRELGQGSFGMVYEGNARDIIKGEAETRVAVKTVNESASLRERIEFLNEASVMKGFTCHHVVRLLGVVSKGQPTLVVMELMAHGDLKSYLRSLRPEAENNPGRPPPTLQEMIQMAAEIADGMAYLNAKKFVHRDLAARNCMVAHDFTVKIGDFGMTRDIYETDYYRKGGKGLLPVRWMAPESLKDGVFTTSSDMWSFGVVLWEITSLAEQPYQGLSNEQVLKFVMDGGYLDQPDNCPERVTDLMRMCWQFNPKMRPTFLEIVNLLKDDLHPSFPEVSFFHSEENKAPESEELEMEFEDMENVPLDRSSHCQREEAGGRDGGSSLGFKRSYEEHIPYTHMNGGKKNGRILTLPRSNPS

B1: Insulin-Fc fusion protein of Example 5 (B5-A+A21G) (Fc fusion)
chain: FVNQALCGSHLVEALYLVCGERGFFYTPKTGGVGGGGIVEQCCTSICSLYQLENYCGGGGGSGGGGSGGGGSGGGGSERKSSVESPPSPAPPVAGPSVFLFPPKPKDTLMISRTPEVTCVVVDVSQEDPEVQFNWYVDGVEVHNAKTKPREEQFNSTFRVVSVLTVLHQDWLNGKEYKCKVSNKGLPSSIEKTISKTKGQPREPQVYTLPPSREEMTKNQVSLTCLVKGFYPSDIAVEWESNGQPENNYKTTPPMLDSDGSFFLYSKLTVDKSRWQQGNVFSCSVMHEALHNHYTQKSLSLSLG
B2: Insulin-Fc fusion protein of Example 6 (B16-A+A3-A+A21G) (Fc fusion)
chain: B1 chain with A5H, Y16A, V39A
B3: Insulin-Fc fusion protein of Example 7 (B25-T+B27-E A3-A+A21G) (Fc fusion)
chain: B1 chain with A5H, F25T, T27E, V39A

Each binder was assayed against human insulin receptor extracellular domain protein (hIRB-ECD, Sino Biological Inc.) (human) (UniProt P06213) (assay: ELISA, coated hIRB-ECD).

Row | Binder | binding
1 | B1 | binds
2 | B2 | binds
3 | B3 | binds

Substitutions are numbered along the chain they refer to. In names and notes the source's numbering stands. No constants are given. Whether binding was seen depends on the method and setting. Binding can be weak; no strength is given. Tags and fused reporters may be left off the sequences shown.
